# According to US20140227292A1 (PROTHENA BIOSCIENCES, published 2014):
# Residue numbers refer to the chain shown, from its start. Results are given in words; binding and its absence hold for the method and conditions named. Some entries that bind do so weakly or less than the wild type. For some assays here: Tags and fused reporters may be left off the sequences shown.
# T1: Murine MCAM domain 1 and 2 (Ig1-2A) with human IgG Fc tag (mouse; human) (UniProt Q8R2Y2)
# T1 sequence (looked up): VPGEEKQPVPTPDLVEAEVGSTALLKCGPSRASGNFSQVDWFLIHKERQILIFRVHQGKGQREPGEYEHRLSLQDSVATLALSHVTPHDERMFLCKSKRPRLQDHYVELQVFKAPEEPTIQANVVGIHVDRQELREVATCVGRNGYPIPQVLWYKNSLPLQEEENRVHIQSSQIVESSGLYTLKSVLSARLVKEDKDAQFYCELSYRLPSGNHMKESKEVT
# T2: human MCAM (melanoma cell adhesion molecule), expressed on transfected CHO cells (human) (UniProt P43121)
# T2 sequence: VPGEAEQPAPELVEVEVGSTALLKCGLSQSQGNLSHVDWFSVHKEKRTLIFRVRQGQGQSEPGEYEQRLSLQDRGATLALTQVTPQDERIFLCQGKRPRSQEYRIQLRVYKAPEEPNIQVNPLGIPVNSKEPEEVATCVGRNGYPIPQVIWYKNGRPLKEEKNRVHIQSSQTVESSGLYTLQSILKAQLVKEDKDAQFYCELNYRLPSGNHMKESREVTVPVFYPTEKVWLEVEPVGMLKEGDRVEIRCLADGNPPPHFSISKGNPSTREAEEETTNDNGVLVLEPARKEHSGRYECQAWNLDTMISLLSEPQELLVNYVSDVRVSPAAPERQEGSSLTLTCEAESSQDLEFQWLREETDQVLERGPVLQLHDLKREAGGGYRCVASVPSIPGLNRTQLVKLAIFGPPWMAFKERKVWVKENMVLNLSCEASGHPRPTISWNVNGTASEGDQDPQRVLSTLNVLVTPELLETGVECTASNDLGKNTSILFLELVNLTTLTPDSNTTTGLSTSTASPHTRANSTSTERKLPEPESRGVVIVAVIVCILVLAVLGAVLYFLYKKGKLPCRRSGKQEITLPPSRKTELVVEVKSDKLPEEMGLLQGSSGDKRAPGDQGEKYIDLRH
# B1: anti-MCAM monoclonal antibody clone 15 (antibody, V domains shown)
# VH: EVRLVESGGGLVQPGKSMKLSCVASGFKFSNYYMSWVRQAPAKGLEWVASISDGGGDTFCRDLVKGRFTISRDNAKSTLYLQMDSLRPEDTATYYCARRGAAMGGVMDAWGQGTSVTVSS
# VL: DIVMTQSPSSLAVSAGETVSIHCKSSQSLLYSGTQKNYLAWFQQKPGQSPKLLIFWASTRQSGVPDRFIGRGSGTDFTLTISGVQAEDLAIYYCQQYYDTLTDTFGAGTKLELKR
# B2: h2107_VH2 + h2107_VL2 (antibody, V domains shown)
# VH: QVTLKESGPVLVKPTETLTLTCTVSGFSLTSNGVSWVRQPPGKALEWIAAISSGGSTYYNSAFKSRLSISRDTSKSQVVLTMTNMDPVDTATYYCARHRPFYFDYWGQGTLVTVSS
# VL: DIQMTQSPSSLSASVGDRVTITCKGSQNIYKSLAWFQLKPGKVPKLLIYDANSLQTGIPSRFSGSGSGTDFTLTISSLQPEDVATYYCQQYYSGYTFGGGTKVEIK
# notes: also called h2107VH2VL2; VH2VL2
# B3: chimeric 1749 (antibody, V domains shown)
# VH: DVKLVESGGDLVKPGGSLKLSCAASGFTFSSYIMSWVRQTPEKRLEWVATISSGGSSTYYPDSVKGRFTISRDNAKNTLYLQMSSLKSEDTAMYYCTRDDDYDVKVFAYWGQGTLVTVSA
# VL: DIVMSQSPSSLAVSAGEKVTMNCKSSRSLLNSRIRKNYLAWYQQKPGQSPKLLIYWASTRESGVPDRFTGSGSGTDFTLTISSVQAEDLAVYYCKQSYNLLTFGAGTKLELK
# B4: h2120_VH5 + h2120_VL3 (antibody, V domains shown)
# VH: QVTLKESGPVLVKPTETLTLTCTVSGFSLTSNAVSWVRQPPGKALEWIAAISSGGTTYYNSAFKSRLTISRDTSKSQVVLTMTNMDPVDTATYYCARRYGYGWYFDFWGQGTLVTVSS
# VL: DIQMTQSPSSLSASVGDRVTINCKASQNIYNSLAWYQQKPGKAPKVLIFNANSLQTGIPSRFSGSGSGTDFTLTISSLQPEDFATYYCQQFYSGYTFGQGTKLEIK
# B5: h1749VH2 + h1749VL1 (antibody, V domains shown)
# VH: EVQLVESGGGLVQPGGSLRLSCAASGFTFSSYIMSWVRQAPGKRLEWVATISSGGSSTYYPDSVKGRFTISRDNAKNSLYLQMNSLRAEDTAVYYCTRDDDYDVKVFAYWGQGTMVTVSS
# VL: DIVMTQSPDSLAVSLGERATINCKSSRSLLNSRIRKNYLAWYQQKPGQPPKLLIYWASTRESGVPDRFSGSGSGTDFTLTISSLQAEDVAVYYCKQSYNLLTFGQGTKVEIK
# B6: h2107_VH3 + h2107_VL2 (antibody, V domains shown)
# VH: B2 VH with S68T, D72N
# VL: B2 VL
# B7: h2120_VH1 + h2120_VL3 (antibody, V domains shown)
# VH: B4 VH with A33G
# VL: B4 VL
# B8: h2120_VH2 + h2120_VL3 (antibody, V domains shown)
# VH: B4 VH with A33G, T68S
# VL: B4 VL
# B9: h2120_VH3 + h2120_VL3 (antibody, V domains shown)
# VH: B4 VH with N32S, A33G
# VL: B4 VL
# B10: h1749VH2 + h1749VL2 (antibody, V domains shown)
# VH: B5 VH
# VL: B5 VL with S69T
# B11: mouse anti-human MCAM monoclonal antibody clone 1749.1.3 (antibody, V domains shown)
# VH: B3 VH
# VL: B3 VL
# B12: h1749VH1 + h1749VL1 (antibody, V domains shown)
# VH: B5 VH with R44G
# VL: B5 VL
# B13: h2107_VH1 + h2107_VL2 (antibody, V domains shown)
# VH: B2 VH with S68T
# VL: B2 VL
# B14: mouse anti-human MCAM monoclonal antibody clone 1174.1.3 (antibody, V domains shown)
# VH: QIQLVQSGPELKKPGETVKISCKASGYTFTNYGMNWVKQAPGKGLKWMGWINTYTGEPTYADDFKGRFALSLETSASTAYLQINNLKNEDMATYFCARYRYNKYERAMDYWGQGTSVTVSS
# VL: DIVLTQSPASLAVSLGQRATISCRASKSVSTSGYSYMYWYQQKPGQPPKLLIYLASNLESGVPARFSGSGSGTDFTLNIHPVEEEDAATYYCQHSRELPFTFGSGTKLEIK
# B15: mouse anti-human MCAM monoclonal antibody clone 1414.1.2 (antibody, V domains shown)
# VH: EIQLQQTGPELVKPGASVKISCKASGYSFTDYIMLWVKQSHGKSLEWIGNINPYSGSSGYNLKFKGKATLTVDKSSSTAYMQLNSLTSEDSAVYYCARGKDFAMDYWGQGTSVTVSS
# VL: B3 VL with N22S, R27Q, R33S, I34T, Y38F, L100R, L101Y, A105G, L111I
# B16: mouse anti-human MCAM monoclonal antibody clone 1415.1.1 (antibody, V domains shown)
# VH: QVQLQQPGAELVQPGAPVKLSCKASGYIFTSYWMNWVKQRPGRGLEWIGRIDPSDSKIHYNQKFKDKATLTVDRSSSTAYIQLGSLTSEDSAVYYCAKEGGLRRGDYAMDYWGQGTSVTVSS
# VL: DIVMTQSPATLSVTPGDRVSLSCRASQSISDYLHWYQQKSHESPRLLIKYASQSISGIPSRFSGSGSGSDFTLSINSVEPEDVGVYYCQNGHNFPRTFGGGTKLEIK
# Target: T1, Murine MCAM domain 1 and 2 (Ig1-2A) with human IgG Fc tag (mouse; human)
# Experiment: ForteBio Octet Red, Fc-tagged domains on anti-human IgG Fc sensors
row,Binder,binding
1,B1,binds

# Target: T2, human MCAM (melanoma cell adhesion molecule), expressed on transfected CHO cells (human)
# Experiment: bar chart 'Top three IC50s repeat': IC50 of blocking of laminin 411 binding to hMCAM-expressing CHO cells
row,Binder,binding
1,B2,binds
2,B3,binds
3,B4,binds
4,B5,binds

# Target: T2, human MCAM (melanoma cell adhesion molecule), expressed on transfected CHO cells (human)
# Experiment: laminin/FACS blocking assay: recombinant laminin 411 added to hMCAM-expressing CHO cells with varying antibody, bound laminin detected with labelled anti-laminin by flow cytometry (MFI); blocked ligand laminin 411
row,Binder,binding
1,B2,binds
2,B6,binds
3,B7,binds
4,B8,binds
5,B9,binds
6,B3,binds
7,B10,binds
8,B11,binds
9,B12,binds
10,B13,binds

# Target: T2, human MCAM (melanoma cell adhesion molecule), expressed on transfected CHO cells (human)
# Experiment: blocking assay of the re-expressed antibodies (Table 7 'Blocking IC50'; laminin/FACS assay of paragraph 438): % inhibition of laminin 411 binding to hMCAM-expressing CHO cells
row,Binder,binding
1,B2,binds
2,B3,binds
3,B4,binds

# Target: T2, human MCAM (melanoma cell adhesion molecule), expressed on transfected CHO cells (human)
# Experiment: blocking assay of the re-expressed antibodies (Table 7 'Blocking IC50'; laminin/FACS assay of paragraph 438): % inhibition of laminin 411 binding to hMCAM-expressing CHO cells; the legend box prints VH2VL2, FIG. 29B and Table 7 print VH2VL1
row,Binder,binding
1,B10,binds

# Target: T2, human MCAM (melanoma cell adhesion molecule), expressed on transfected CHO cells (human)
# Experiment: summary of Examples 11 and 12
row,Binder,binding
1,B11,binds
2,B14,binds
3,B15,binds
4,B16,binds
